Measurements reported in US20240228599A1.
No constants are given. Whether binding was seen depends on the method and setting. Some results given as binding are weak or reduced against the parent protein; the word gives no strength.

By UniProt entry, the sequences of proteins in these tests, tags left out. Residues count along the entry.
UniProt P00751, residues 26-764: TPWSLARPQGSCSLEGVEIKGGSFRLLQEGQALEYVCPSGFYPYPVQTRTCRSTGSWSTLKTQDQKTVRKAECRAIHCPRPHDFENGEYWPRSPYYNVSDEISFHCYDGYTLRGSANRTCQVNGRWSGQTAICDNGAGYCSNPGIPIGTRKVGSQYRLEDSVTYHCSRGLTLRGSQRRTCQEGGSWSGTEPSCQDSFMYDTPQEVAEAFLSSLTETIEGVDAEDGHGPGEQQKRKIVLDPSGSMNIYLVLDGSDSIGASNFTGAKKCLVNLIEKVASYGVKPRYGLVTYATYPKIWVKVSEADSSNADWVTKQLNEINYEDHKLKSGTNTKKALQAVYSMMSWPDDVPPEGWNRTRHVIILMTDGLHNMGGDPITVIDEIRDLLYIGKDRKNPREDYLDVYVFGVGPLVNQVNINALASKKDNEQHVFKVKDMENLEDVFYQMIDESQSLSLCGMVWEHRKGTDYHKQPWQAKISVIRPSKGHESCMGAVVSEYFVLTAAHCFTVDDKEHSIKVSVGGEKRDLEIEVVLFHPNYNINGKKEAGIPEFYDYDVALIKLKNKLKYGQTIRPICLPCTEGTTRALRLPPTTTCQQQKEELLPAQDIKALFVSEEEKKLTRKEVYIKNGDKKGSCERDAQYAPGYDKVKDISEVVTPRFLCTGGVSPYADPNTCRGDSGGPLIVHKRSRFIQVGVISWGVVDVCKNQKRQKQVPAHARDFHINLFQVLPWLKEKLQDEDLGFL

B1: anti-factor Bb monoclonal antibody M4 (antibody, V domains shown)
VH: EVQLQQSGPELVKPGASVKMSCKASGYSFTDYLMNWVKQSHGKSLEWIGRINPYNGDAFYNQRFKGKATLTVDKSSSTAHMELRSLTSEDSALYYCARLENDYGFTYWGQGTLVTVSA
VL: DIVMTQAAFSNPVTLGTSASISCSSSKSLLHSNGITYLYWYLQRPGQSPQLLIYRMSNLASGVPDRFSGSGSGTDFTLRISRVEAEDVGVYYCAQMLERPWTFGGGTKLEIK
B2: anti-factor Bb monoclonal antibody M10 (antibody, V domains shown)
VH: EVQLVESGGALVKPGGSLKLSCAASGFTFSNYAMSWVRQTPEKRLEWVATISNRGSYTYYPDSVKGRFTISRDNAKNTLYLQMSSLRSEDTALYYCARERPMDYWGQGTSVTVSS
VL: DIVMTQSHKFMSTSVGDRVSITCKASQDVGTAVAWYQQKPGQSPKLLIYWASTRHTGVPDRFTGSGSGTDFTLTITNVQSEDLAVYFCHQHSSNPLTFGAGTKLELK
B3: anti-factor Bb monoclonal antibody M12 (antibody, V domains shown)
VH: B1 VH
VL: B1 VL
B4: anti-factor Bb monoclonal antibody M17 (antibody, V domains shown)
VH: EVQLVESGGVLVKPGGSLKLSCAASGFTFSNFAMSWVRQTPAKRLEWVATISNGGGYTYYPDSVQGRFTISRDNANNTLYLQMSSLRSEDTALYYCARIYYGSSYEDWFAYWGQGTLVTVSA
VL: DIVMTPSHKFMSTSVGDRVSITCKASQDVGSAVAWYQQKPGHSPKLLIFWASTRHTGVPDRFTGSGSGTDFTLTISNVQSEDLADYFCQQYSSYPYTFGGGTRLEIK
B5: anti-factor Bb monoclonal antibody M18 (antibody, V domains shown)
VH: B2 VH
VL: B2 VL
B6: chimeric M10 (antibody, human IgG4, V domains shown)
VH: B2 VH
VL: B2 VL
B7: chimeric M4 (antibody, human IgG4, V domains shown)
VH: B1 VH
VL: B1 VL

How the values were obtained:
full-length Factor B [1] = target: full-length Factor B (UniProt P00751); test: size exclusion chromatography, complex in solution
[2] = target: purified human Factor Bb (human) (UniProt P00751); test: ELISA; human Factor Bb coated at 1 µg/mL, mAb in 3-fold dilutions from 10 µg/mL, HRP goat anti-mouse, OD450
[3] = target: purified human Factor Bb (human) (UniProt P00751); test: ELISA, human Factor Bb coated at 1 µg/mL
full-length Factor B [4] = target: full-length Factor B (UniProt P00751); test: antigen-capture ELISA, biotinylated factor B at 1 µg/mL
[5] = target: purified human Factor Bb (human) (UniProt P00751); test: antigen-capture ELISA
[6] = target: purified human Factor Bb (human) (UniProt P00751); test: antigen-capture ELISA, biotinylated factor Bb at 1 µg/mL
[7] = target: purified human Factor Bb (human) (UniProt P00751); test: ELISA on Factor Bb coated plate (pharmacokinetic assay)

Row | Binder | binding (full-length Factor B [1]) | binding [2] | binding [3] | binding (full-length Factor B [4]) | binding [5] | binding [6] | binding [7]
1 | B1 | binds | binds | binds | binds | – | – | –
2 | B2 | – | binds | binds | – | binds | – | –
3 | B3 | binds | binds | binds | binds | – | – | –
4 | B4 | – | binds | binds | – | binds | binds | –
5 | B5 | – | binds | binds | – | binds | – | –
6 | B6 | – | – | – | – | – | – | binds
7 | B7 | – | – | – | – | – | – | binds
